Assay results: patent publication EP2982680B1 (Academy of Military Medical Sciences, priority 2013, dated 2014)
HELM strings list residues between dots; [ac] is acetyl, [am] amide, other brackets name non-standard units.

Experiment: general procedure: Fmoc solid-phase peptide synthesis; WANG resin (GL Biochem (Shanghai) Ltd.)

PEPTIDE1{R.R.R.R.R.R.R.R.R.R.R.R.R.R.R}$$$$V2.0 [R15 sulfate]
purity (crude or final not stated) (late stage modification step, HPLC-UV (stated for R15 sulfate)): higher than 98%
step yield (late stage modification step, average yield, sulfate): higher than 70%
final purity (method not given) (whole synthesis, HPLC-UV (stated for R15 sulfate)): higher than 99.0%
